From patent publication US20220112470A1, “SYSTEMS AND METHODS FOR METABOLIC ENGINEERING” (THE TRUSTEES OF COLUMBIA UNIVERSITY IN THE CITY OF NEW YORK, priority 2019, published 2022)
For at least one compound, name, drawing or mass did not settle the structure. Some of these results come from one statement about several compounds together.

Chains of the proteins cited; added tags and fusions are not shown. A line that says so, or that is headed by a name, gives the form on record, which may keep a tag or linker.
UniProt P04483, other isoform, or with tags, fused parts or gaps: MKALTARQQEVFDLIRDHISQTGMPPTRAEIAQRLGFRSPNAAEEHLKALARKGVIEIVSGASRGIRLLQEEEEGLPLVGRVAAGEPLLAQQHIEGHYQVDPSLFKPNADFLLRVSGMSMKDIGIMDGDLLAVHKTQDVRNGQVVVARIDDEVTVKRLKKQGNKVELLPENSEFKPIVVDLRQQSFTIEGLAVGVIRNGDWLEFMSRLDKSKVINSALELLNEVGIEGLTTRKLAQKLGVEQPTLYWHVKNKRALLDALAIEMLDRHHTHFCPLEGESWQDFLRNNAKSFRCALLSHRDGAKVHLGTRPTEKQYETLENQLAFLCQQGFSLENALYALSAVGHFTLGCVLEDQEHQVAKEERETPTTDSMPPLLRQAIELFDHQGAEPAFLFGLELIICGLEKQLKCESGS

What was measured:
[1] = target: T1, LexA-TetR fusion protein (Escherichia coli, UniProt P04483); test: Y3H LacZ assay for tetracyclines; assay type: cell-based, Saccharomyces cerevisiae; conditions: for limit of detection in the Y3H assay: concentration at which signal-to-noise ratio >3:1; for concentrations differentiated by the Y3H system (range): LacZ reporter, competition with Min-Mtx CID
T1 construct: expressed in transfected cells; host or cells: Saccharomyces cerevisiae: FY250-derived PBA-8 (LacZ), LW2635-derived PBA-14 (URA3 growth), FY250-derived HL-2-4-1 (mCherry); the other entry of the earlier key: lexA (P0A7C2, LexA repressor)
Method: Protocol for Y3H LacZ Assay. […] Pelleting and resuspension were repeated once more. […] The assay plate was placed in the shaker overnight. OD measurements were then taken after 24 h, and the cells ere pelleted and resuspended in 100 μL of Z-buffer (60 mM Na2HPO4, 40 mM NaH2PO4, 10 mM KCl, 2 mM MgSO4, pH adjusted to 7, 2.7 mL/L of β-mercaptoethanol added fresh the day of the assay). The cells were pelleted again, resuspended in 100 μL of Y-PER buffer (Fisher Scientific, no. 78990), and lysed for 30 min at rt before the addition of o-nitrophenyl β-Dgalactopyranoside (ONPG) in Z-buffer (8.5 μL, 10 mg/mL). After 90 min, a Na2CO3 solution (1 M, 110 μL) was added to quench the reaction. After pelleting at 3000 rpm, 175 μL of the supernatant was transferred into flat clear-bottom 96-well plates (Corning no. 353072), and OD420 was measured. The limit of detection was calculated as the concentration of molecule at which the signal-to-noise ratio of the assay was >3:1.^32,33

[2] = target: TetR (Escherichia coli, UniProt P04483); conditions: literature (ref. 37); cited from earlier work
[3] = target: T2, LexA-TetR(B) fusion protein (Escherichia coli, UniProt P04483); conditions: CID 10 μM, Dox 1 μM, FIG. 3C
[4] = target: T2, LexA-TetR(B) fusion protein; test: Y3H growth assay (URA3 reporter, 5-FOA); assay type: cell-based, Saccharomyces cerevisiae; parameters: expressed in transfected cells; host or cells: Saccharomyces cerevisiae: FY250-derived PBA-8 (LacZ), LW2635-derived PBA-14 (URA3 growth), FY250-derived HL-2-4-1 (mCherry); the other entry of the earlier key: lexA (P0A7C2, LexA repressor); conditions: CID 25 μM, Dox 5 μM, FIG. 3A

Molecule	limit of detection in the Y3H assay [1] [µM]	concentrations differentiated by the Y3H system (range) ([1]; FIG. 2C) [µM]	affinity of TetR-tetracycline interaction [2]	limit of detection of the Y3H assay ([1]; FIG. 2C) [nM]	LacZ reporter gene expression ([1]; strains PBA-8 (LexA-TetR) vs PBA-5, CID 25 μM, Dox 200 nM, FIG. 5)	mCherry transcription [3]	yeast growth [4]
9-NH2-minocycline	≤ 2						
CN(C)[C@@H]1C(O)=C(C(N)=O)C(=O)[C@@]2(O)C(O)=C3C(=O)c4c(O)cccc4[C@@](C)(O)[C@H]3C[C@@H]12 [tetracycline]	≤ 2	0.02 to 2	picomolar affinity				
C[C@H]1c2cccc(O)c2C(=O)C2=C(O)[C@]3(O)C(=O)C(C(N)=O)=C(O)[C@@H](N(C)C)[C@@H]3[C@@H](O)[C@@H]21 [doxycycline]	≤ 0.2	0.002 to 0.2		≤ 200	lowers reporter gene expression only in the strain with LexA-TetR in the presence of the CID	dependent on doxycycline (Dox) in the presence but not in the absence of the CID	doxycycline-dependent in the presence, but not in the absence of the Min-Mtx CID
